The target in experiment [1] is recombinant full-length human MeCP2 with a Flag-tag (human) (UniProt P51608). The experiment is described as follows: ELISA; competition ELISA: Flag-tagged MeCP2 coated (25 µL of 10 µg/mL); 2.5 µM L1-ICD preincubated for 1 h without or with a 5-fold molar excess of L1 peptides; detection with L1 antibody C-2; both purified.
The target in experiment [2] is recombinant MeCP2 used as substrate-coat in the label-free binding assay (human) (UniProt P51608). Put plainly: label-free binding assay (BIND technology, peak wavelength shift); recombinant MeCP2 coated on a 384-well plate with TiO2 biosensor surface; L1-ICD and CHL1-ICD as soluble binding partners at increasing concentrations; both purified.
Experiment [3] has as its target recombinant full-length human MeCP2 (amino acids 1-486) with GST-tag (human) (UniProt P51608). Put plainly: ELISA; GST-tagged MeCP2 coated (25 µL of 5 µg/mL, 384-well plate); increasing concentrations of His-tagged L1-ICD or CHL1-ICD for 1 h at room temperature; detection with L1 antibody C-2 or CHL1 antibody C-18; both purified.

Sequences of proteins named here, by UniProt entry; tags and fusion partners are left off. Residues count along the entry.
UniProt P51608: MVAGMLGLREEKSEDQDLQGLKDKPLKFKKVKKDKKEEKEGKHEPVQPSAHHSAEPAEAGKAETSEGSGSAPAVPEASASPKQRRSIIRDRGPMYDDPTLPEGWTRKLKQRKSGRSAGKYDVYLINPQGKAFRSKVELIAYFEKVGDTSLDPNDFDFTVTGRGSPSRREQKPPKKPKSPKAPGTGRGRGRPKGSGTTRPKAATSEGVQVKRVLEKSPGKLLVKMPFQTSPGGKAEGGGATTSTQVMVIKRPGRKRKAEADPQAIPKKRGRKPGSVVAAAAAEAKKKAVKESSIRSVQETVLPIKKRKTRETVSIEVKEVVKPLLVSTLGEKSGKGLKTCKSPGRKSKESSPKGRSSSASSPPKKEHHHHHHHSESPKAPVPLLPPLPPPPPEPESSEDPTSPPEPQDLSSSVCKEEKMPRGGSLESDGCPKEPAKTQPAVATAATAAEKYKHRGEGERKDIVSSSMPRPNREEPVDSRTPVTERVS
UniProt P11627, residues 1147-1260: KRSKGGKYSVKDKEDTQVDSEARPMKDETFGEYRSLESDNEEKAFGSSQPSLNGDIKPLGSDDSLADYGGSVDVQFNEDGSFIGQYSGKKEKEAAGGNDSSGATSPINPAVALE
UniProt P70232, residues 1105-1209: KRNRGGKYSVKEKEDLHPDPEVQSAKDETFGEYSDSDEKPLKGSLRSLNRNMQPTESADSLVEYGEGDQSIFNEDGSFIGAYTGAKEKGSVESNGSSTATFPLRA

These are yes or no findings as the source states them, for the method shown. Some results given as binding are weak or reduced against the parent protein; the word gives no strength.

Take “recombinant His-tagged intracellular domain of mouse L1 (L1-ICD) (from UniProt P11627 1147-1260) (domain or fragment)”: the binding result in experiment [1] and in experiment [2] was “binds” throughout.
As to “recombinant His-tagged intracellular domain of mouse CHL1 (CHL1-ICD) (from UniProt P70232 1105-1209) (domain or fragment)”, the binding entry in experiment [3] and in experiment [2] was “no binding” in each case.

Source of the values: paper PMC8998178.
